Measured values: US9808511B2, “Method for treating alopecia with B-type natriuretic peptide” (IGISU Co., Ltd., priority 2011, dated 2017)
For at least one compound, name, drawing or mass did not settle the structure.

System: androgenetic alopecia
Assay: Case tests: application to hair loss sites of androgenetic alopecia patients
Assay type: in vivo, human
Settings: previous treatment of the test subject (history), one value per case
Protocol: The test subjects were patients with alopecia areata, androgenetic alopecia, postpartum alopecia, female pattern alopecia, alopecia pityroides, and senile alopecia. Diagnosis and treatment of these test subjects were carried out by the present inventors as physicians.
Clinical classification of alopecia was carried out in accordance with the Classification of the Japanese Dermatological Association, and evaluation of the severity of alopecia areata was carried out in accordance with the above-mentioned ‘USA Alopecia Areata Evaluation Guidelines’, the area of hair loss being classified using 6 grades of S0 to S5 and the hair loss site being classified using 3 grades of B0 to B2.
In general, in order to confirm the effect of an external medicine in an individual case, a method involving separate left and right applications is desirable. […] However, taking into consideration medical ethics, the preparatory test in accordance with the separate left and right applications method was minimized, and when a preparatory test was not carried out, a therapeutic effect was evaluated by comparison between that before application and that after application. […]
In order to carry out evaluation objectively, photographs before and after application of the NP preparation were recorded in all cases. […]

**Q.** What does the source list for Nc1cc(N2CCCCC2)nc(N)[n+]1[O-] [minoxidil]?
**A.** Effect of minoxidil: there had been no effect; Effect of minoxidil (listed as Minoxidil): there had been no effect
